Where two headings read alike, the source gives them in different places. These are yes or no findings as the source states them, for the method shown. Binding seen in cells or lysates may run through a third protein. Some results given as binding are weak or reduced against the parent protein; the word gives no strength.
B1: IRF1 (endogenous) (protein, UniProt P10914 1-325)
chain: MPITRMRMRPWLEMQINSNQIPGLIWINKEEMIFQIPWKHAAKHGWDINKDACLFRSWAIHTGRYKAGEKEPDPKTWKANFRCAMNSLPDIEEVKDQSRNKGSSAVRVYRMLPPLTKNQRKERKSKSSRDAKSKAKRKSCGDSSPDTFSDGLSSSTLPDDHSSYTVPGYMQDLEVEQALTPALSPCAVSSTLPDWHIPVEVVPDSTSDLYNFQVSPMPSTSEATTDEDEEGKLPEDIMKLLEQSEWQPTNVDGKGYLLNEPGVQPTSVYGDFSCKEEPEIDSPGGDIGLSLQRVFTDLKNMDATWLDSLLTPVRLPSIQAIPCAP

Protein sequences, listed by entry. Tags and fused reporters are not part of them. Residues count along the entry.
UniProt P15941, residues 1098-1255: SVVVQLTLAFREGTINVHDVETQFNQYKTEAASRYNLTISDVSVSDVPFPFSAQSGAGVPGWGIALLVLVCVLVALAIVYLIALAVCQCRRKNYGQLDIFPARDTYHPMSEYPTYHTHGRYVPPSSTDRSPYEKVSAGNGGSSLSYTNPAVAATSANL
UniProt Q86U86: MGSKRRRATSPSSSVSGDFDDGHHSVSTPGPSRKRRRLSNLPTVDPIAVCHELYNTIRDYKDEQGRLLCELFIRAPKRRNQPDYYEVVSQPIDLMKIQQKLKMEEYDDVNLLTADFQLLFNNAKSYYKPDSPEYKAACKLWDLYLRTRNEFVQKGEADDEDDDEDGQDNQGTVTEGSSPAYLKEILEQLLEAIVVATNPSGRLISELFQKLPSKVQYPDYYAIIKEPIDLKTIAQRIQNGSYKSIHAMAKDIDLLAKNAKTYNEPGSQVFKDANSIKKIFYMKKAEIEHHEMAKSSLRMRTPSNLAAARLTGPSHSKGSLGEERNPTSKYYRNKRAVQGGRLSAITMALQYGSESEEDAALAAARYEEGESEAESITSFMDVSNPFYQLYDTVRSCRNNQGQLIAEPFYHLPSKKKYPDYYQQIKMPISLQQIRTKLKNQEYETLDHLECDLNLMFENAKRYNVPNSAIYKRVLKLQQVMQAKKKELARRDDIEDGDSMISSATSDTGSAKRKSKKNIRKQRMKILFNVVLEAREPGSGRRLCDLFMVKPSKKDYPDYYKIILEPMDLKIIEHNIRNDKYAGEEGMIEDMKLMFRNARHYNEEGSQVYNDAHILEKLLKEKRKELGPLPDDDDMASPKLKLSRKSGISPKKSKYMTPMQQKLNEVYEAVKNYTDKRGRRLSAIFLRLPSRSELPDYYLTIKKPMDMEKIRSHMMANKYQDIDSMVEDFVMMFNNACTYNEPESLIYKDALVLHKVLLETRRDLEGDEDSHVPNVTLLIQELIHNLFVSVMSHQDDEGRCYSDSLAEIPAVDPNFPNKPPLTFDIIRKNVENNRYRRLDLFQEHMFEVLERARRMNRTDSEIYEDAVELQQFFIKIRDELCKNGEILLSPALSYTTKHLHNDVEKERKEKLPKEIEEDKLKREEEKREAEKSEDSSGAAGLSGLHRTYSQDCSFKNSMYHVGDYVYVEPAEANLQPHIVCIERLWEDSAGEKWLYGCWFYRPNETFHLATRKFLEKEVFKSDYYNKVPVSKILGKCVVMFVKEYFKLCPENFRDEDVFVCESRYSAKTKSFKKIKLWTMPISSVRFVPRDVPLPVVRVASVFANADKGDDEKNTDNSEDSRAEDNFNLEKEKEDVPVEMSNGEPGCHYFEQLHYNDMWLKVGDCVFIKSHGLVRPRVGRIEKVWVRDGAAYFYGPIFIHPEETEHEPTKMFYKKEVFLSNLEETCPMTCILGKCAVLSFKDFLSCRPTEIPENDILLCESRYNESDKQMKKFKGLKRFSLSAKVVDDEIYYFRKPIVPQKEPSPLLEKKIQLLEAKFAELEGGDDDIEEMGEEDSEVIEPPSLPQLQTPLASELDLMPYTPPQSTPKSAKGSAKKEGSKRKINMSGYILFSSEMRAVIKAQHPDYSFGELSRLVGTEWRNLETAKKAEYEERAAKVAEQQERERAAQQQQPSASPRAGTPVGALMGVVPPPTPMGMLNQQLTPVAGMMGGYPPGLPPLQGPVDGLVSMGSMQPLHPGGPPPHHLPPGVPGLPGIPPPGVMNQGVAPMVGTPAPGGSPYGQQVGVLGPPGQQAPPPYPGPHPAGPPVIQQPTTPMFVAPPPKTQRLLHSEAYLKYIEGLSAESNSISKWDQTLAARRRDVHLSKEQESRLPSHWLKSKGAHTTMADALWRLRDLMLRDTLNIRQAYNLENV

Assays:
[1] = target: MUC1 transmembrane C-terminal subunit (MUC1-C) (human (endogenous in BT-549)) (UniProt P15941); experiment: co-IP; nuclear lysates incubated with anti-MUC1-C (MA5-11202), precipitated with Dynabeads Protein G; control IgG; immunoblot
[2] = target: MUC1 transmembrane C-terminal subunit (MUC1-C) (human (endogenous in BT-549)) (UniProt P15941); experiment: as above; remark: listed apart in the source

Molecule | binding [1] | binding [2]
polybromo-1 (PBRM1) (from UniProt Q86U86 1-1689) | binds | 
B1 |  | binds

— paper PMC9975675
